{"source": "PubChem BioAssay AID504467", "about": "(National Center for Advancing Translational Sciences (NCATS), 2011)", "note": "The campaign covered roughly 330,000 compounds. About 7,700 (2.3%) were called active. The inconclusive results got no clear call from the source; some entries with a clear call stand among them for comparison. The call rests on the fitted dose curve; in most records, active means well fitted inhibition curve with a large enough effect; inconclusive means small, poorly fitted or top-dose-only effect, or effect the other way; inactive means flat fitted curve, though single readings scatter. Where the call is inconclusive, the potency comes from a doubtful curve fit. Potency means the concentration at half of the fitted maximal effect.", "data": [{"assay": "qHTS screen for small molecules that inhibit ELG1-dependent DNA repair in human embryonic kidney (HEK293T) cells expressing luciferase-tagged ELG1; further: nearly all actives have a fitted effect of over 55% in size", "details": "HEK293T ELG1-luciferase reporter, luminescence, 16 h, DNA damage induced by 5-fluorouridine; series mostly up to 46.1 µM", "in_short": "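Reporter activity after DNA damage by 5-fluorouridine is monitored. Compound-treated cells incubate 16 hr at 37 °C, then ONE-Glo is added for 30 min before luminescence reading.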", "values": [{"smiles": "Oc1ccc(Br)cc1CNc1cccc2cccnc12", "Potency": "inconclusive: 35.5 µM [inhibitor, single point]"}, {"smiles": "Cc1ccc(C(=O)c2no[n+]([O-])c2C(=O)c2ccc(C)cc2)cc1", "Potency": "inconclusive: 23.1 µM [inhibitor, single point]"}, {"smiles": "O=S1(=O)C=C(Oc2ccc3ccccc3c2)c2ccccc21", "Potency": "inconclusive: 18.4 µM [inhibitor, partial curve, poor fit]"}, {"smiles": "Cc1ccccc1-c1nnn(CC(=O)Nc2ccc3c(c2)OCCO3)n1", "Potency": "inconclusive: 18.3 µM [activator, single point]"}, {"smiles": "CC(CN1CCOCC1)OC(=O)/C=C/c1ccccc1", "note": "(configuration not stated)", "Potency": "inconclusive: 23.1 µM [activator, single point]"}, {"smiles": "S=C(Nc1ccc(Cl)cc1)NC1CC2CCC(C1)N2Cc1ccccc1", "note": "(configuration not stated)", "Potency": "inactive"}, {"smiles": "COc1ccc(N2CCN(C(=O)CCc3ccc(S(=O)(=O)NC(C)(C)C)cc3)CC2)cc1", "Potency": "inconclusive: 20.6 µM [inhibitor, single point]"}, {"smiles": "CC(C)c1nnc(NC(=O)C2CCCN2C(=O)Nc2cccc(Cl)c2)s1", "note": "(configuration not stated)", "Potency": "inactive"}, {"smiles": "CCCN1CCc2c(sc(NC(=O)c3ccc(S(=O)(=O)N(C)c4ccccc4)cc3)c2C(=O)NC)C1", "Potency": "active: 23.1 µM"}, {"smiles": "O=C(Nc1ccc2c(c1)OCO2)N1CCN(C(=O)C2CCCO2)CC1", "note": "(configuration not stated)", "Potency": "inconclusive: 29.1 µM [activator, partial curve, poor fit]"}, {"smiles": "CCC(=O)OCCNc1nc(-c2ccccc2)nc2ccccc12", "Potency": "inactive"}, {"smiles": "CN1C(=O)C(C)(C)c2cc(S(=O)(=O)N3CCN(c4cccc(Cl)c4)CC3)ccc21", "Potency": "inactive"}, {"smiles": "CCCCn1c(SCC2CCCCO2)nc2cc(S(N)(=O)=O)ccc21", "note": "(configuration not stated)", "Potency": "inconclusive: 16.4 µM [inhibitor, partial curve, poor fit]"}, {"smiles": "CC(=O)Nc1ccc(NC(=O)c2ccc(OCc3c(C)noc3C)cc2)cc1", "Potency": "inactive"}, {"smiles": "O=C(c1ccc2c(=O)n(Cc3ccc4c(c3)OCO4)c(=O)[nH]c2c1)N1CCN(c2ccccc2)CC1", "Potency": "inactive"}, {"smiles": "Cc1ccc(N2C(=NC(=O)c3ccccc3)SC3CS(=O)(=O)CC32)cc1", "note": "(configuration not stated)", "Potency": "inactive"}, {"smiles": "Cc1ccnc(NS(=O)(=O)c2cc(-c3cc(C)no3)ccc2C(C)C)c1", "Potency": "inconclusive: 13 µM [activator, partial curve]"}, {"smiles": "Cc1ccc(OCCCC(=O)Nc2ccc3c(c2)OCO3)cc1", "Potency": "inconclusive: 29.1 µM [inhibitor, partial curve, poor fit]"}, {"smiles": "O=[N+]([O-])c1ccc(N/N=C/c2ccccc2)cc1", "Potency": "inconclusive: 20.6 µM [activator, partial curve]"}, {"smiles": "Cc1cc(C)cc(N(CC(=O)NCC2CCCO2)C(=O)CCC(=O)Nc2nccs2)c1", "note": "(configuration not stated)", "Potency": "inactive"}, {"smiles": "O=C(Nc1nc2cc3c(cc2s1)OCO3)C1CC1", "Potency": "inactive"}, {"smiles": "O=C(Nc1nc(-c2ccccc2)ns1)c1cccs1", "Potency": "inconclusive: 10.3 µM [activator, partial curve]"}, {"smiles": "CCOC(=O)C1CN(S(=O)(=O)c2cccs2)c2ccc(CC(=O)OC)cc2O1", "note": "(configuration not stated)", "Potency": "inactive"}, {"smiles": "O=C(NNC(=O)c1ccco1)c1csc(N2CCOCC2)n1", "Potency": "inactive"}, {"smiles": "COC(=O)c1ccccc1-c1ccc(/C=N/Nc2nc(N3CCCC3)nc(N3CCCC3)n2)o1", "Potency": "inconclusive: 18.3 µM [inhibitor, single point]"}, {"smiles": "CC(=O)c1ccc(Nc2ccc([N+](=O)[O-])c3nonc23)cc1", "Potency": "inactive"}, {"smiles": "NS(=O)(=O)c1ccc(N2N=C(c3ccccc3)CC2c2ccccc2Br)cc1", "note": "(configuration not stated)", "Potency": "inactive"}, {"smiles": "CCN(CC)S(=O)(=O)c1cccc(-c2nnc(SCc3nc4ccccc4s3)o2)c1", "Potency": "inconclusive: 29.1 µM [inhibitor, single point]"}, {"smiles": "Cc1ccc(-c2nnc(N3CCN(C(=O)Cn4c(=O)n(C)c5ccccc54)CC3)c3ccccc23)cc1", "Potency": "inconclusive: 23.1 µM [inhibitor, partial curve, poor fit]"}, {"smiles": "COc1ccc(-c2nnc(NC(=O)c3ccc([N+](=O)[O-])o3)o2)c(OC)c1", "Potency": "inactive"}, {"smiles": "COC(=O)[C@H](CCSC)NC(=O)c1cc2c(cn1)[nH]c1ccccc12", "Potency": "inactive"}, {"smiles": "O=C(/C=C/c1ccc([N+](=O)[O-])cc1)Nc1ncc([N+](=O)[O-])s1", "Potency": "inconclusive: 0.259 µM [activator, partial curve]"}, {"smiles": "Cc1ccsc1CNn1cnnc1SCc1ccccc1F", "Potency": "inconclusive: 13 µM [activator, partial curve, poor fit]"}, {"smiles": "COc1cc(C(=O)NC(=S)Nc2ccc3c(c2)OCO3)cc(OC)c1OC", "Potency": "inconclusive: 29.1 µM [inhibitor, single point]"}, {"smiles": "Fc1ccc(-n2nnc(-c3cccnc3Cl)n2)cc1", "Potency": "inconclusive: 8.2 µM [activator, partial curve]"}, {"smiles": "CCCC(=O)NC(c1ccc(OCC)cc1)c1ccc(OC)c(OC)c1", "note": "(configuration not stated)", "Potency": "inconclusive: 20.6 µM [inhibitor, single point]"}, {"smiles": "CCCOc1ccc(CNC(=O)Cc2cccs2)cc1", "Potency": "inconclusive: 14.6 µM [activator, partial curve]"}, {"smiles": "Cc1cc(C)c(S(=O)(=O)N(CC(=O)O)CC(=O)O)c(C)c1", "Potency": "inconclusive: 29.1 µM [activator, partial curve, poor fit]"}, {"smiles": "Cc1ccccc1OCCSc1nnc(C)n1-c1ccccc1", "Potency": "inconclusive: 16.4 µM [activator, single point]"}, {"smiles": "Cc1ccc(S(=O)(=O)c2cc3c(=O)n4ccccc4nc3n(C3CCCC3)c2=N)cc1", "Potency": "inconclusive: 23.1 µM [inhibitor, partial curve, poor fit]"}, {"smiles": "CC(C)N1CCN(Cc2nc(-c3ccccc3)cs2)CC1CCO", "note": "(configuration not stated)", "Potency": "inconclusive: 23.1 µM [activator, single point]"}, {"smiles": "CC(C)(C)OC(=O)N[C@H]1C=C[C@H](OC(=O)CC(=O)OCC(F)(F)F)C1", "Potency": "inconclusive: 32.6 µM [activator, partial curve, poor fit]"}, {"smiles": "CC1CCC(NC(=O)C(Cc2ccccc2)n2cccc2)CC1", "note": "(configuration not stated)", "Potency": "inactive"}, {"smiles": "CCOC(=O)C1=C(c2ccccc2)O/C(=C(\\C(=O)OC)C(F)(F)F)S1", "Potency": "inactive"}, {"smiles": "COc1ccc(-c2nc3ccccc3n2OCC(=O)O)cc1", "Potency": "inconclusive: 13 µM [activator, partial curve]"}, {"smiles": "COCCn1c(C)cc(C(=O)COc2nc3ccccc3nc2C)c1C", "Potency": "active: 23.1 µM"}, {"smiles": "CC[C@]1(O)C[C@@H]2CN(CCc3c([nH]c4ccccc34)[C@@](C(=O)OC)(c3cc4c(cc3OC)N(C)[C@H]3[C@@](O)(C(=O)OC)[C@H](OC(C)=O)[C@]5(CC)C=CCN6CC[C@]43[C@@H]65)C2)C1", "Potency": "inconclusive: 0.231 µM [inhibitor, single point]"}, {"smiles": "CC(=O)c1cccc(Nc2cc(C)nc3ccc(C)cc23)c1", "Potency": "inconclusive: 0.259 µM [inhibitor, single point]"}, {"smiles": "Cc1ccc(-c2nnc(NCc3nc4ccccc4[nH]3)c3ccccc23)cc1S(=O)(=O)N1CCCCC1", "Potency": "active: 8.2 µM"}, {"smiles": "Cc1ccccc1OCC(O)Cn1nnc2ccccc21", "note": "(configuration not stated)", "Potency": "inconclusive: 11.6 µM [activator, partial curve]"}, {"smiles": "C/C=C(\\C)C(=O)N1CC2(CC(c3cccc(NC(=O)COc4ccc(Cl)cc4)c3)=NO2)C[C@@H]1C(N)=O", "note": "(some centres not stated)", "Potency": "inactive"}, {"smiles": "CCN(CC)c1ccc(C(=O)OCC(=O)Nc2sccc2C#N)cc1", "Potency": "inconclusive: 8.2 µM [activator, partial curve]"}, {"smiles": "CNC(=S)Nc1cccc(C(=O)OC)c1", "Potency": "inconclusive: 9.2 µM [activator, partial curve]"}, {"smiles": "COc1cc(/C=N/Nc2ccccn2)cc(OC)c1O", "Potency": "inconclusive: 29.1 µM [activator, single point]"}, {"smiles": "O=C(Nc1ccc2c(c1)OCO2)c1cnn2c(C(F)(F)F)cc(-c3ccco3)nc12", "Potency": "inconclusive: 4.11 µM [inhibitor, full curve, poor fit]"}, {"smiles": "CN1CCc2c(sc(NC(=O)c3ccc(S(=O)(=O)N4CCc5ccccc54)cc3)c2C(N)=O)C1", "Potency": "inconclusive: 16.4 µM [activator, partial curve, poor fit]"}, {"smiles": "O=C(Cc1cccs1)N1CCN(c2cccc(Cl)c2)CC1", "Potency": "inconclusive: 16.4 µM [activator, single point]"}, {"smiles": "CCOC(=O)c1c(NC(=O)CSc2nnc(N)s2)sc(C)c1-c1ccc(C)cc1", "Potency": "inconclusive: 20.6 µM [inhibitor, partial curve]"}, {"smiles": "Cc1cc(/C([O-])=C(/C(=S)Nc2ccc(F)cc2)[n+]2ccccc2)c(C)n1-c1ccc(F)cc1", "Potency": "inconclusive: 16.4 µM [activator, single point]"}, {"smiles": "COc1ccc(CNc2ccccc2SC)cc1OC", "Potency": "inconclusive: 20.6 µM [activator, partial curve]"}, {"smiles": "COc1ccc(/C=C(/NC(=O)c2ccccc2)C(=O)N2CCOCC2)cc1OC", "Potency": "inconclusive: 29.1 µM [inhibitor, single point]"}, {"smiles": "CCC1CCCCN1CCCNC(=O)c1ccc(N2CCCC2=O)cc1", "note": "(configuration not stated)", "Potency": "inconclusive: 20.6 µM [activator, single point]"}, {"smiles": "CN(CC(=O)N1CCc2ccccc21)S(=O)(=O)c1cccc2cccnc12", "Potency": "inconclusive: 5.8 µM [inhibitor, partial curve, poor fit]"}, {"smiles": "CCN(CC)C(=O)c1ncn(C)c1C(=O)N(CC)CC", "Potency": "inactive"}, {"smiles": "CC(=O)Nc1ccc(S(=O)(=O)NCCC(=O)Nc2ccc(C)c(Cl)c2)cc1", "Potency": "inactive"}, {"smiles": "CN(C)S(=O)(=O)N1CCC(Oc2cccc(C(=O)N3CCCCCCC3)c2)CC1", "Potency": "inconclusive: 14.6 µM [inhibitor, partial curve]"}, {"smiles": "CCOc1ccc(CCNc2nc3ccccc3n3c(C)nnc23)cc1OCC", "Potency": "inconclusive: 20.6 µM [inhibitor, partial curve, poor fit]"}]}]}
